Measurements taken from paper PMC11322664.
Results are given in words; binding and its absence hold for the method and conditions named. In cells and extracts the contact can be indirect. Some entries that bind do so weakly or less than the wild type.

Target: T1, Ferroptosis suppressor protein 1 (human (endogenous in 786-O)) (UniProt Q9BRQ8)
T1 sequence: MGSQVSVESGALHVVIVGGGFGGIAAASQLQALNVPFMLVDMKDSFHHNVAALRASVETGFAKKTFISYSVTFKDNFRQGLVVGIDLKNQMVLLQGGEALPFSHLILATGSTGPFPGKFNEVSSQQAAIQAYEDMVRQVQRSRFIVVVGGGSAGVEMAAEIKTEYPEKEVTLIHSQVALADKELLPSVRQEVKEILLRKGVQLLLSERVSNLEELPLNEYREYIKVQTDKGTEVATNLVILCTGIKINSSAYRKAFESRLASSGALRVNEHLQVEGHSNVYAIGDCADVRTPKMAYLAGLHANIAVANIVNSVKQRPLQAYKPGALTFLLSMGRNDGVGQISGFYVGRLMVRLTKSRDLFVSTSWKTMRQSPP
Test: co-IP; 786-O cells lysed in NP-40 buffer, pre-cleared; anti-MDH2 or anti-FSP1 rabbit polyclonal antibody (IgG as negative control), 4 °C 12 h, protein A/G Sepharose beads; Western blot with anti-MDH2 or anti-FSP1

B1: Malate dehydrogenase 2 (enzyme, UniProt P40926 25-338)
chain: AKVAVLGASGGIGQPLSLLLKNSPLVSRLTLYDIAHTPGVAADLSHIETKAAVKGYLGPEQLPDCLKGCDVVVIPAGVPRKPGMTRDDLFNTNATIVATLTAACAQHCPEAMICVIANPVNSTIPITAEVFKKHGVYNPNKIFGVTTLDIVRANTFVAELKGLDPARVNVPVIGGHAGKTIIPLISQCTPKVDFPQDQLTALTGRIQEAGTEVVKAKAGAGSATLSMAYAGARFVFSLVDAMNGKEGVVECSFVKSQETECTYFSTPLLLGKKGIEKNLGIGKVSSFEEKMISDAIPELKASIKKGEDFVKTLK
binding: binds
